Measurements taken from patent US20170081419A1 (AbbVie / Abbott, published 2017).
These are yes or no findings as the source states them, for the method shown. Some binding calls cover weakened binding; strength is not graded here.

Amino acid sequences for entries named in this document (tags omitted). Residues count along the entry.
UniProt Q8HYX8, residues 33-285: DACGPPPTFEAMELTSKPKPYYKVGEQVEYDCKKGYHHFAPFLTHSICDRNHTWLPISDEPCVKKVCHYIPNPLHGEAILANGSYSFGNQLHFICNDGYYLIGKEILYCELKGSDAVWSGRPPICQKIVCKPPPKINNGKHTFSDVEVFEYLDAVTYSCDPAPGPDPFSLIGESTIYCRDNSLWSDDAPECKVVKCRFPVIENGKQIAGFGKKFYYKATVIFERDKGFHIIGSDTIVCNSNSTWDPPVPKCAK

Biological target: marmoset CD46 homolog (marmoset (Callithrix jacchus)) (UniProt Q8HYX8)
Experiment: ForteBIO, concentration series of recombinant monomeric CD46 homolog

| Binder | binding |
| --- | --- |
| N35.6 (antibody, IgG2a, V domains shown) VH: EVQLVESGGGLVKPGGSLKLSCAASGFTFSDYYMYWVRQTPEKRLEWVATISDGGTYIYYPDSVKGRFTISRDNAKNNLYLQMSSLKSEDTAMYYCVRDIDYDTSYPWFAYWGQGTLVTVSA VL: RCDIQMTQTTSSLSASLGDRVTISCSASQGISNYLNWYQQKPDGTVKLLIYYTSSLHSGVPSRFSGSGSGTDYSLTINNLEPEDIATYYCQQYSKLPWTFGGGTKLEIKR | binds |
| N50.3 (antibody, IgG2b, V domains shown, .3 is the subclone suffix; also called SC1.N50) VH: EVLLHQSGPELVKPGASVKIPCKASGYTFTDYNMDWVKQSHGKSLEWIGDINPNNGGTFYNQKFKGKATLTVHKSSSTAFMELRSLTSEDTAVYYCTRSKYDNYPWFAYWGQGTLVTVSA VL: DIQMTQITSSLSASLGDRVTISCSASQGISNYLNWYQQKPDGTVKLLIYYTSSLHSGVPSRFRGSGSGTNYSLTISNLEPEDIATYYCQQYIKLPWTFGGGTKLEIKR | binds |

Other lines, results leading:

| binding | Binder |
| --- | --- |
| binds | N53.5 (antibody, IgG1, V domains shown) VH: QVQLQQSGPELVKPGASVKLSCKASGYTFTNYDINWVKQRPGQGLEWIGWIYPRDGSFKYNEKFKGKATLTVDTSSSTAYMDLHSLTSEDSAVFFCAVSEDGYPWFPYWGQGTLVTVSA VL: GIQMTQTTSSLSASLGDRVTISCSASQGISNYLNWYQQKPDGTVKLLIYYTSSLHSGVPSRFSGSGSGTDYSLTISNLEPEDIATYYCQQYIKLPFTFGSGTKLEIKR |
| binds | N54.4 (antibody, IgG2a, V domains shown) VH: QVQLQQPGAELVKPGASVKLSCQTSGYTFTSYWMHWVKQRPGQGLEWIGEINPSNGRTNYNEKFKTKATLTVDKSSTTAYIQLNSLTSEDSAVYYCARLRDYGGWGQGTLVTVSA VL: NIVMTQSPKSVSMSVGERVTLSCKASENVNTFVSWFQQKPDQSPKLLIYGASNRYPGVPDRFTGSGSATEFTLTISSVQAEDLADYHCGQSYSYPYTFGGGTKLEIKR |
